The source of these data is the supplement of paper PMC7666118.

Amino acid sequences for entries named in this document (tags omitted). A change or cut given only in a name is not applied to a line headed by its entry.
UniProt Q92608: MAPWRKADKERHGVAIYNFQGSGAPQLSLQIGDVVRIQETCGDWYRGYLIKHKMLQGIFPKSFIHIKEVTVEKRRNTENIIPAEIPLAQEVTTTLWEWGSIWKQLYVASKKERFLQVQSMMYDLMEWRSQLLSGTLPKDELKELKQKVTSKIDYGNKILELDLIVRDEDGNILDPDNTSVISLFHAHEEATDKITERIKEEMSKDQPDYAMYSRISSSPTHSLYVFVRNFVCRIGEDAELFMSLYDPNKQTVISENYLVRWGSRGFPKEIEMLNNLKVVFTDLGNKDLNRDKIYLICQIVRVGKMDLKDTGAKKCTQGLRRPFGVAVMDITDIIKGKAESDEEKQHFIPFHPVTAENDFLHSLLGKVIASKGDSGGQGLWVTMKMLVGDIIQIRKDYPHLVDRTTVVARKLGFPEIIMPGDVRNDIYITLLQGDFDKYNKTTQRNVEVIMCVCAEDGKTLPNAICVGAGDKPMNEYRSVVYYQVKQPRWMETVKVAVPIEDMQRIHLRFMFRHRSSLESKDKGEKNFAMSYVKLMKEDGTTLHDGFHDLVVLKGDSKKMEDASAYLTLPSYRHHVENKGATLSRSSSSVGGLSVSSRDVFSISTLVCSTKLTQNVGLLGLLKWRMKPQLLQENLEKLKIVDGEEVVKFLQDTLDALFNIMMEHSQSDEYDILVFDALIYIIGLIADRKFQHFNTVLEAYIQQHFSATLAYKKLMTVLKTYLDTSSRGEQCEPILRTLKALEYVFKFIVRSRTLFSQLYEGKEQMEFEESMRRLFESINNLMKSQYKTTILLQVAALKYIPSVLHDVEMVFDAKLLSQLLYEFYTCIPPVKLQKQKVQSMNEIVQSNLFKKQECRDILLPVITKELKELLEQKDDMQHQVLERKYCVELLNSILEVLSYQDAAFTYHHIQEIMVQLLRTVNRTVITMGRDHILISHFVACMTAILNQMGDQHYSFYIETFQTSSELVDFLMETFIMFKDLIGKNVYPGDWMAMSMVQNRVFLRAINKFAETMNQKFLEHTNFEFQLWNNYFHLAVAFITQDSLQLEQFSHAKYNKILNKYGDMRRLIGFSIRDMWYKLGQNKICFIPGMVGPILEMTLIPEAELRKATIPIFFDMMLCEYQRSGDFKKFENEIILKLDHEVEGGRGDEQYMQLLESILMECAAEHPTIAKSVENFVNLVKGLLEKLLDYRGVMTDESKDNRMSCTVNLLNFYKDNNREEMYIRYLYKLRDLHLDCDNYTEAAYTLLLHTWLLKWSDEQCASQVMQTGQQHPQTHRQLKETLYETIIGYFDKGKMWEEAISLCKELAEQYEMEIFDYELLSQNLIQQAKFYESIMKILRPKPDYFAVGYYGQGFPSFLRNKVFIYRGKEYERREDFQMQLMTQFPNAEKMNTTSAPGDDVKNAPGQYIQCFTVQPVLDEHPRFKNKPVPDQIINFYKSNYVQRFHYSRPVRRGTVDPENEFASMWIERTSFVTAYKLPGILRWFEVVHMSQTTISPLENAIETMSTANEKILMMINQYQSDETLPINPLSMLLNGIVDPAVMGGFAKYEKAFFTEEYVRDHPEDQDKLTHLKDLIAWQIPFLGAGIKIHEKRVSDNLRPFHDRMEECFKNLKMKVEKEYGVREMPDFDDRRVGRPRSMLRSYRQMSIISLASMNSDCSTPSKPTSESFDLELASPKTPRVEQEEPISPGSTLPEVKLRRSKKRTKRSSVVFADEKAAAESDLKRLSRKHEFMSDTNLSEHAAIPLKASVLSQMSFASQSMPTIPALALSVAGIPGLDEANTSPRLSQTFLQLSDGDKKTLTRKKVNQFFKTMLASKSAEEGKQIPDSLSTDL
UniProt O00429, whole entry: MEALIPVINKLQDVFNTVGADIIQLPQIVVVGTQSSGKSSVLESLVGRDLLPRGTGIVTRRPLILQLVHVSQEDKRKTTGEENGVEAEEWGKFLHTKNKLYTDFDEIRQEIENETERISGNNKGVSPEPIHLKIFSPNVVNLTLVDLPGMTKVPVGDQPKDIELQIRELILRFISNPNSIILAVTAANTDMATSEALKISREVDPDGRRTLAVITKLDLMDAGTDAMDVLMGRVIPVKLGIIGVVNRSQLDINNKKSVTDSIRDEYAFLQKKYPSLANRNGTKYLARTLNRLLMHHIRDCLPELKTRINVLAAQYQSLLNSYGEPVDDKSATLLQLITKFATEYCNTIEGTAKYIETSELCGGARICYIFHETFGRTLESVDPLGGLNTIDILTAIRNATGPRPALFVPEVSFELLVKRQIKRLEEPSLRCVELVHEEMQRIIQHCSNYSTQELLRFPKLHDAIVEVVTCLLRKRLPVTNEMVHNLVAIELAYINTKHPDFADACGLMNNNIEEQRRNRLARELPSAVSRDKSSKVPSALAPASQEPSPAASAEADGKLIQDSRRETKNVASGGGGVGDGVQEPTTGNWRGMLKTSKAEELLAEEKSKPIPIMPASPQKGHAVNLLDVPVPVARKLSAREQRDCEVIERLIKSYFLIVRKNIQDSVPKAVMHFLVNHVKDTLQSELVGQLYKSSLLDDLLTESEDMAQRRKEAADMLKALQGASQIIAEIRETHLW
UniProt P49674: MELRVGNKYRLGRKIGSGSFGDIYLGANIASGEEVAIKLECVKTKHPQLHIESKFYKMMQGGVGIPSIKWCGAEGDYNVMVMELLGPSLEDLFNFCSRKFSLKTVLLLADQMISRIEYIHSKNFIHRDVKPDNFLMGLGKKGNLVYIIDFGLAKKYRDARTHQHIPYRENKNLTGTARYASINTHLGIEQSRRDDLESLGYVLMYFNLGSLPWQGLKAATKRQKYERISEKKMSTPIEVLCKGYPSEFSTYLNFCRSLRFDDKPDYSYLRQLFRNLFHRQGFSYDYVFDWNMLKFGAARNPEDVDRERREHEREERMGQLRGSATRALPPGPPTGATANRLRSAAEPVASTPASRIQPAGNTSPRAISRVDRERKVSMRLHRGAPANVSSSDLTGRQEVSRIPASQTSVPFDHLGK
UniProt Q9UPY3: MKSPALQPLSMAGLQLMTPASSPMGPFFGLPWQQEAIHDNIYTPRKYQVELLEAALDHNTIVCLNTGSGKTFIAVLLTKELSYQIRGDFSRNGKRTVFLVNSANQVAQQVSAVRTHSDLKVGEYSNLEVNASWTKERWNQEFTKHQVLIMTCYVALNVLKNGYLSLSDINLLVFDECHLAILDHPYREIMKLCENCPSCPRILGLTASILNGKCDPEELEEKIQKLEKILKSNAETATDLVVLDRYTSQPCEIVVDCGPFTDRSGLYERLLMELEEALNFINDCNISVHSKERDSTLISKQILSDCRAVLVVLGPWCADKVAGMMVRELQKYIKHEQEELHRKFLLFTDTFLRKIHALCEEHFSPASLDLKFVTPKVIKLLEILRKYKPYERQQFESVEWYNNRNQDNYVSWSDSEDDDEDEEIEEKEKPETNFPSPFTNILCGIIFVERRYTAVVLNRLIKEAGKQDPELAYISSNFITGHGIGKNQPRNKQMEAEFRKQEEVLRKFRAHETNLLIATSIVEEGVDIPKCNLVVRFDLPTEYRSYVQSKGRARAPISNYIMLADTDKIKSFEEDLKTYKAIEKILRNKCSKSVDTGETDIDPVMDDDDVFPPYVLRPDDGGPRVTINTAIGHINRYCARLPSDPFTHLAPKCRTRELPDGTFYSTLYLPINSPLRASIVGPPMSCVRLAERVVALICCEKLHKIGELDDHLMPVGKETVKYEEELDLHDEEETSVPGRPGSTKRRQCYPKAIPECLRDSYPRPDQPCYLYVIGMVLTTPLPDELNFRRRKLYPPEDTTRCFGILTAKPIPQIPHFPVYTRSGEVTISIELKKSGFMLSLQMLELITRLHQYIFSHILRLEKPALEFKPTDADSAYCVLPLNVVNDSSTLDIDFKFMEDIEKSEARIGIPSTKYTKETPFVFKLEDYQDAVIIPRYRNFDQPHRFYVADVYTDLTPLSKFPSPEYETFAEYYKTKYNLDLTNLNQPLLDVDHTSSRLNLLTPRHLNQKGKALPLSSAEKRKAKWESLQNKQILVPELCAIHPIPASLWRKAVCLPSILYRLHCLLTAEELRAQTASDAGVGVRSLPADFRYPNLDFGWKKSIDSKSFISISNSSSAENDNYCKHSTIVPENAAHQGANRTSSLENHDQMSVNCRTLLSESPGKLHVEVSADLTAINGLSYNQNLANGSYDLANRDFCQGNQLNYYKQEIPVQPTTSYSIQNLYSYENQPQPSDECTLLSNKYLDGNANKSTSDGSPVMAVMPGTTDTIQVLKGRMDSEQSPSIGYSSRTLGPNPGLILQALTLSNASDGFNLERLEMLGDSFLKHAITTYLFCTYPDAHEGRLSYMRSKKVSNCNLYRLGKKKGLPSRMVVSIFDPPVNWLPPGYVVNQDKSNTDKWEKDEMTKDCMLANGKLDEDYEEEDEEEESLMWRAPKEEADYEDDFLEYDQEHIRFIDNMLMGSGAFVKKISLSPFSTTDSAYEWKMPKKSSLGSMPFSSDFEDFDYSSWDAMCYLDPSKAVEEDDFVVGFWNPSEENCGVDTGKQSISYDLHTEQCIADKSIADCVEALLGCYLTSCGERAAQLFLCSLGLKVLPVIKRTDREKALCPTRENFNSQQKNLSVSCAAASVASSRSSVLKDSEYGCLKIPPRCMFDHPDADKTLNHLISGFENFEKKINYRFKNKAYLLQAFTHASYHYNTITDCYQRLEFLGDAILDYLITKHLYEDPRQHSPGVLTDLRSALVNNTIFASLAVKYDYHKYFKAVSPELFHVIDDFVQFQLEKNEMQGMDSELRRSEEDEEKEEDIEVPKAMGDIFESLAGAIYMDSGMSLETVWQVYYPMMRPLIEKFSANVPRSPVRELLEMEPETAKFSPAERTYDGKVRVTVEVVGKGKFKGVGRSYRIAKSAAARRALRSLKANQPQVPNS
UniProt Q93034, whole entry: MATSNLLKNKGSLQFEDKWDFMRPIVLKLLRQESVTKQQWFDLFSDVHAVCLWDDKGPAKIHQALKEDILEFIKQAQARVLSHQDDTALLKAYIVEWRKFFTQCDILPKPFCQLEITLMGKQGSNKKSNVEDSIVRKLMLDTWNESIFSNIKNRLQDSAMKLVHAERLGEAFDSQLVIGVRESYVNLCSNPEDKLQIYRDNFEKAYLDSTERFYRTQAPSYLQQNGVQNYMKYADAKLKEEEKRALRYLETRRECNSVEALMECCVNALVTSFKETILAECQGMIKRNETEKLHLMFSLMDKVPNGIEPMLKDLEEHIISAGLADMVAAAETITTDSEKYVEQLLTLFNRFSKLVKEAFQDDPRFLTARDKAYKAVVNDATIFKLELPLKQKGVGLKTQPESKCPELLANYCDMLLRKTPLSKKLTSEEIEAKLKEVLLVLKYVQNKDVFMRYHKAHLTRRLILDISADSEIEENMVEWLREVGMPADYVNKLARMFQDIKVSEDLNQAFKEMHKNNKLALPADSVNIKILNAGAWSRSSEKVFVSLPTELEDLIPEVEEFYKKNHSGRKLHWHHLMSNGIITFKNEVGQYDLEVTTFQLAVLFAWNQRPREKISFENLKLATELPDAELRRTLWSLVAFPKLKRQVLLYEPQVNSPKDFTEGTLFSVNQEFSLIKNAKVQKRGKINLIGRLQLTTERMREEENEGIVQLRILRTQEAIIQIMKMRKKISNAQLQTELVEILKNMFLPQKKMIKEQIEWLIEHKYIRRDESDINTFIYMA
UniProt Q9GZR7: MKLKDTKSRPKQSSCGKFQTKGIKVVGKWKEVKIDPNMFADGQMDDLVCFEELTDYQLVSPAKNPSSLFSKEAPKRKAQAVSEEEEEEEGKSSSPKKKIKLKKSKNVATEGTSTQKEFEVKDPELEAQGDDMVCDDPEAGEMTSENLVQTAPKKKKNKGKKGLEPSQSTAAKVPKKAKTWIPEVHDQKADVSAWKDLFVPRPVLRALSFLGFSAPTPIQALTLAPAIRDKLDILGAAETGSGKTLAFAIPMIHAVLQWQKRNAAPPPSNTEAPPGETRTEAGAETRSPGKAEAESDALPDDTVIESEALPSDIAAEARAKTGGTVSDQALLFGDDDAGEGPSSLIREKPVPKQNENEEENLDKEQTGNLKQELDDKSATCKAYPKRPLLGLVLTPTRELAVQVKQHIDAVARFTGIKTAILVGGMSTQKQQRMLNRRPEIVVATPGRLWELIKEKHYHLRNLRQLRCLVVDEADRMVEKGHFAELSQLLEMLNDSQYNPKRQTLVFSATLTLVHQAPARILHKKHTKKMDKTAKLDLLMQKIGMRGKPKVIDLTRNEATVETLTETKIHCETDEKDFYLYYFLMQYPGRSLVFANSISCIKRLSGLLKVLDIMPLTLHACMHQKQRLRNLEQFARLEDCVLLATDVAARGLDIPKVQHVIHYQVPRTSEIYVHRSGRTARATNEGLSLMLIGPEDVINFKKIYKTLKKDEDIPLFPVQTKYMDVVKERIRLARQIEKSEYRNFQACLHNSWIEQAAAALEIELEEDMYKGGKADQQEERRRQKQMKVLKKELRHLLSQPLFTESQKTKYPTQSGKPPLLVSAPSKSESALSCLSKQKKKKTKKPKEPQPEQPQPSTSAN

This is one part of the list.

Compound in this experiment: COc1ccc(Cn2ccc3cc(C)c(C(=O)NO)cc32)cc1
Put plainly: dose-dependent thermal stabilisation call (2D-TPP, DLPTP, 10% FDR) (binary (1 = stabilised)); higher = stabilised by the compound. Particulars: system: HL-60 intact cells; concentration range 0.04-10 µM. On the procedure:
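2D thermal proteome profiling in intact HL-60 cells treated with BRD-3811 (0, 0.04, 0.29, 2, 10 uM) for 90 min at 37 C, then heated 3 min at one of 12 temperatures (42-63.9 C). Soluble protein was quantified by TMT10 MS. The value is the DLPTP call of the paper: dose-dependent thermal stabilisation over all temperatures at 10% FDR (F-test of a dose-response against a flat model); one experiment, one call per tested protein.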
As for DBI (UniProt P07108), the “dose-dependent thermal stabilisation call” value was inactive: 0.

Turning to CYTSA (UniProt Q69YQ0), the “dose-dependent thermal stabilisation call” value is inactive: 0.

For DHX30 (UniProt Q7L2E3), the “dose-dependent thermal stabilisation call” value was inactive: 0.

Take DPM1 (UniProt O60762): the “dose-dependent thermal stabilisation call” value is inactive: 0.

For the target DKFZP761E198, the “dose-dependent thermal stabilisation call” value was inactive: 0.

On to DNAJC14 (UniProt Q6Y2X3), for which the “dose-dependent thermal stabilisation call” value is inactive: 0.

CUL1 (UniProt Q13616): the “dose-dependent thermal stabilisation call” value is inactive: 0.

As to DNAJC11 (UniProt Q9NVH1), the “dose-dependent thermal stabilisation call” value was inactive: 0.

In the case of DENND1C (UniProt Q8IV53), the “dose-dependent thermal stabilisation call” value was inactive: 0.

Turning to CXORF38 (UniProt Q8TB03), the “dose-dependent thermal stabilisation call” value is inactive: 0.

On to DDX51 (UniProt Q8N8A6), for which the “dose-dependent thermal stabilisation call” value is inactive: 0.

Turning to DKFZP686O24166, the “dose-dependent thermal stabilisation call” value was inactive: 0.

Consider DOCK2 (UniProt Q92608), for which the “dose-dependent thermal stabilisation call” value was inactive: 0.

Take DENR (UniProt O43583): the “dose-dependent thermal stabilisation call” value is inactive: 0.

For DOHH (UniProt Q9BU89), the “dose-dependent thermal stabilisation call” value is inactive: 0.

Regarding DCP1A (UniProt Q9NPI6), the “dose-dependent thermal stabilisation call” value was inactive: 0.

Regarding DNM1L (UniProt O00429), the “dose-dependent thermal stabilisation call” value is inactive: 0.

DGAT1 (UniProt O75907): the “dose-dependent thermal stabilisation call” value was inactive: 0.

Regarding CSNK1E (UniProt P49674), the “dose-dependent thermal stabilisation call” value was inactive: 0.

With DDX47 (UniProt Q9H0S4), the “dose-dependent thermal stabilisation call” value is inactive: 0.

With DICER1 (UniProt Q9UPY3), the “dose-dependent thermal stabilisation call” value is inactive: 0.

DAP3 (UniProt P51398): the “dose-dependent thermal stabilisation call” value is inactive: 0.

In the case of CUL5 (UniProt Q93034), the “dose-dependent thermal stabilisation call” value is inactive: 0.

Consider DIP2B (UniProt Q9P265), for which the “dose-dependent thermal stabilisation call” value was inactive: 0.

CUTC (UniProt Q9NTM9): the “dose-dependent thermal stabilisation call” value is inactive: 0.

With DIS3L (UniProt Q8TF46), the “dose-dependent thermal stabilisation call” value is inactive: 0.

As to DHX9 (UniProt Q08211), the “dose-dependent thermal stabilisation call” value was inactive: 0.

For the target DNAJB14 (UniProt Q8TBM8), the “dose-dependent thermal stabilisation call” value is inactive: 0.

Regarding DPP7 (UniProt Q9UHL4), the “dose-dependent thermal stabilisation call” value was inactive: 0.

Turning to CUGBP1 (UniProt Q92879), the “dose-dependent thermal stabilisation call” value was inactive: 0.

Consider DDX42 (UniProt Q86XP3), for which the “dose-dependent thermal stabilisation call” value was inactive: 0.

In the case of DNAJC7 (UniProt Q99615), the “dose-dependent thermal stabilisation call” value was inactive: 0.

Regarding DIMT1L (UniProt Q9UNQ2), the “dose-dependent thermal stabilisation call” value is inactive: 0.

Consider DMXL1 (UniProt Q9Y485), for which the “dose-dependent thermal stabilisation call” value was inactive: 0.

Take DDX55 (UniProt Q8NHQ9): the “dose-dependent thermal stabilisation call” value was inactive: 0.

For DDX24 (UniProt Q9GZR7), the “dose-dependent thermal stabilisation call” value was inactive: 0.
